Laboratory results as given in the supplement of paper PMC12823440, “Inhibitors supercharge kinase turnover through native proteolytic circuits” (Nature, 2025).
Where a name gives a salt, the structure may show the parent alone. The list shows a part of the results. The calls rarely recur for the same compound in another form.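 In K562 cells expressing nanoluciferase-fused kinases, luminescence was recorded at 4 h intervals between 2 and 18 h, normalized as percent of control with DMSO at 100% and a positive control at 0%. A significant (2 sigma) signal drop marks a time point as decreased. The authors' rule for a hit is not shown and takes in more than the number of time points.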

Sequences of proteins named here, by UniProt entry; tags and fusion partners are left off. A change or cut given only in a name is not applied to a line headed by its entry.
UniProt Q9UM73: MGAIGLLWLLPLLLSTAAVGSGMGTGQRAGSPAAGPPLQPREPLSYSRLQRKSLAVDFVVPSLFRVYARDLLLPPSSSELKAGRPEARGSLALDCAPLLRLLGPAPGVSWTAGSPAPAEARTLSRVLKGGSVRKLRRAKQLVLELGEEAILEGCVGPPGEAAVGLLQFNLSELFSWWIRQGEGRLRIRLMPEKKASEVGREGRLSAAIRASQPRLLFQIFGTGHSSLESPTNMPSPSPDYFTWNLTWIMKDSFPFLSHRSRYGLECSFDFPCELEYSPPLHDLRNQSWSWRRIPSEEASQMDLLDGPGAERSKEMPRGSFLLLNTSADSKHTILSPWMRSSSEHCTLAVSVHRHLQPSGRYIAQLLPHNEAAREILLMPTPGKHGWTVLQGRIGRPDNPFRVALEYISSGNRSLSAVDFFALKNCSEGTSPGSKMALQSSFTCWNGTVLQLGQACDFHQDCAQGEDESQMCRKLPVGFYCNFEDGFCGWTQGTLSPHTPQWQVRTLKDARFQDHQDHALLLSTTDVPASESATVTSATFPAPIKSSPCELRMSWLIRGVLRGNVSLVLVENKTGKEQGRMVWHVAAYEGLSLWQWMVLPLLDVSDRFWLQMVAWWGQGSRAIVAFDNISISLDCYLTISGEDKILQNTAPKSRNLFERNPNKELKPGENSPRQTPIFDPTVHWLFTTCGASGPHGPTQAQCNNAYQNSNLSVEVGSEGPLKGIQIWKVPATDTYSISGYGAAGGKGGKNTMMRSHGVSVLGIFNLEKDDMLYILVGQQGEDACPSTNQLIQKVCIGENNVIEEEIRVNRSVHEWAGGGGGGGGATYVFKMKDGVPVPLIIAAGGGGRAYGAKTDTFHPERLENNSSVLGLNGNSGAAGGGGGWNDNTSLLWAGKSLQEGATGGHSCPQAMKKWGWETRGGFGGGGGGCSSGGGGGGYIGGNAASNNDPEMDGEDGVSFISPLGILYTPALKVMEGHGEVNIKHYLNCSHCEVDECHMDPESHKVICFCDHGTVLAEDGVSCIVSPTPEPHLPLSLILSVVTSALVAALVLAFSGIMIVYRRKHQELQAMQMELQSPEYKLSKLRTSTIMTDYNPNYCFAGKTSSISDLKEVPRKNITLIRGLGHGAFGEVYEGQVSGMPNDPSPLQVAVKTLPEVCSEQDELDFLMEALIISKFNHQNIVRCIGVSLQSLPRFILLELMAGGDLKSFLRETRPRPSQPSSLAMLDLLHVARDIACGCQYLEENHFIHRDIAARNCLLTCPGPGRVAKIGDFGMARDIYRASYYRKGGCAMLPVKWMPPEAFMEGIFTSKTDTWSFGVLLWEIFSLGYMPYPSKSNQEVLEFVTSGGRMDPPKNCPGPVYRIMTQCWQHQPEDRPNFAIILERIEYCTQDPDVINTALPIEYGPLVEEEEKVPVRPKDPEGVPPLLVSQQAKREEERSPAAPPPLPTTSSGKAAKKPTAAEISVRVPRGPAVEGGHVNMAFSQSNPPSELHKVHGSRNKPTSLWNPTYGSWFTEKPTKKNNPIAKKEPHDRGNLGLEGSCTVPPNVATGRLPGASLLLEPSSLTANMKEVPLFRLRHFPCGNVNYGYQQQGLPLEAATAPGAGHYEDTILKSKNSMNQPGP
UniProt P10398: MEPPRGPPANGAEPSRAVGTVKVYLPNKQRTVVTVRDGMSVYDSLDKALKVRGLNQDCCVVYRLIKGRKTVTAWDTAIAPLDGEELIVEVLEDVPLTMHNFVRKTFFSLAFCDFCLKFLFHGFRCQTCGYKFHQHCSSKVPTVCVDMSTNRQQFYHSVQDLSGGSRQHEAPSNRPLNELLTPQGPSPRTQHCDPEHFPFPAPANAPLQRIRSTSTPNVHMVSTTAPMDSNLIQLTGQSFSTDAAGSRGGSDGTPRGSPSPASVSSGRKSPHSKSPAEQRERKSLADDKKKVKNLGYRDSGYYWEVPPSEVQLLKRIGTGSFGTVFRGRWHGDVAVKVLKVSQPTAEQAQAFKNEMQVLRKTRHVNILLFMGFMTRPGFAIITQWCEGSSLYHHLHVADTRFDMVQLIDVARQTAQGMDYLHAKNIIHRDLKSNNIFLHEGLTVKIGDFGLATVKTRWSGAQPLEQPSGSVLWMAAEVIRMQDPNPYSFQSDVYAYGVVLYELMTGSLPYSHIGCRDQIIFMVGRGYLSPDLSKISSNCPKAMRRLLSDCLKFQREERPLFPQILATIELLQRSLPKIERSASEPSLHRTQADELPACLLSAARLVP
UniProt O14965: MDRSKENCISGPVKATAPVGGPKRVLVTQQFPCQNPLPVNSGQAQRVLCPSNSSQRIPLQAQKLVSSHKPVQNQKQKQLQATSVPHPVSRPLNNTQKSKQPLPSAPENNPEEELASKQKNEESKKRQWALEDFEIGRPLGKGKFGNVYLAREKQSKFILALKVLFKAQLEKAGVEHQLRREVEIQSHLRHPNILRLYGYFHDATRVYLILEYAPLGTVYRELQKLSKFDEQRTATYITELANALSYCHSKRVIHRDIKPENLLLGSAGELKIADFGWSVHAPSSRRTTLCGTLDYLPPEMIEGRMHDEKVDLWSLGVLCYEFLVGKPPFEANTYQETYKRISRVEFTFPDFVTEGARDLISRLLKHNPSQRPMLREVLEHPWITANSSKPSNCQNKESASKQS
UniProt Q96GD4, whole entry: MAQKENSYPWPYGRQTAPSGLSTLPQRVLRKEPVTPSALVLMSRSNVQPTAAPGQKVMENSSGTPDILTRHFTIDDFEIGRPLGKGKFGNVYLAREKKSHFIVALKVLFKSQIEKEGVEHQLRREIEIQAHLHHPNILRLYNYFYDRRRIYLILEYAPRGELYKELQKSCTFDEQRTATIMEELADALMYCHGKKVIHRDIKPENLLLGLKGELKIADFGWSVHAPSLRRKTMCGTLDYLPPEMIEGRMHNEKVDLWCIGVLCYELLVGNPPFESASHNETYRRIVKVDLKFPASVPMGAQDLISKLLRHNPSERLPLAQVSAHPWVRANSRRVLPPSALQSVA
UniProt Q9UQB9: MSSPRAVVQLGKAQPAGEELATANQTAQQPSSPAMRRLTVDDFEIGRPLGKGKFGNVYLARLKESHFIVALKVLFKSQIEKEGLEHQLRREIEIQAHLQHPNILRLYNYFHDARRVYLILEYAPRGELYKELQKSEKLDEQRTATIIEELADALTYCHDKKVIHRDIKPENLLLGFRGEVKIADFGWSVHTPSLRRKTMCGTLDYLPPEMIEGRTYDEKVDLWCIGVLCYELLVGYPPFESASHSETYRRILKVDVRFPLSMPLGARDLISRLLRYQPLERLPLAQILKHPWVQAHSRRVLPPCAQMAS
UniProt P15056, whole entry, looked up: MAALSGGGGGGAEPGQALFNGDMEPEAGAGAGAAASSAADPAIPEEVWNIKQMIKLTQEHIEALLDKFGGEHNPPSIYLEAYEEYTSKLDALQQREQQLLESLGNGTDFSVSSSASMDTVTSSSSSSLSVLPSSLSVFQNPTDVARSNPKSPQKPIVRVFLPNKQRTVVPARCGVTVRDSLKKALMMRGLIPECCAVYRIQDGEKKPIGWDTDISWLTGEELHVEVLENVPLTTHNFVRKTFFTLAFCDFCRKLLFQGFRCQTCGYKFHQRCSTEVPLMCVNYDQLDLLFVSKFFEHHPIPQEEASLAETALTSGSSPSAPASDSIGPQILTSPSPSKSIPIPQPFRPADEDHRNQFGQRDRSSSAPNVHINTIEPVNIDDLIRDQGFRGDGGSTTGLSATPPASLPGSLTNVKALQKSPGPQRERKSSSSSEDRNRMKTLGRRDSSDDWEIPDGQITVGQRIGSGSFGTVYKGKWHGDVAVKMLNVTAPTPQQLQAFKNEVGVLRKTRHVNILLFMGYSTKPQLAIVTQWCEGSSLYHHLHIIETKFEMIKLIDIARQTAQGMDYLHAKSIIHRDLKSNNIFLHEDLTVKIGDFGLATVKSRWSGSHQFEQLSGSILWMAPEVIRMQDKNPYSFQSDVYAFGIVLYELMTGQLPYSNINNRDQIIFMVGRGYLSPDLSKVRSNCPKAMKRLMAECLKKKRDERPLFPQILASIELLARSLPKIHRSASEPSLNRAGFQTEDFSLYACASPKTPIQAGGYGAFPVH
UniProt Q06187: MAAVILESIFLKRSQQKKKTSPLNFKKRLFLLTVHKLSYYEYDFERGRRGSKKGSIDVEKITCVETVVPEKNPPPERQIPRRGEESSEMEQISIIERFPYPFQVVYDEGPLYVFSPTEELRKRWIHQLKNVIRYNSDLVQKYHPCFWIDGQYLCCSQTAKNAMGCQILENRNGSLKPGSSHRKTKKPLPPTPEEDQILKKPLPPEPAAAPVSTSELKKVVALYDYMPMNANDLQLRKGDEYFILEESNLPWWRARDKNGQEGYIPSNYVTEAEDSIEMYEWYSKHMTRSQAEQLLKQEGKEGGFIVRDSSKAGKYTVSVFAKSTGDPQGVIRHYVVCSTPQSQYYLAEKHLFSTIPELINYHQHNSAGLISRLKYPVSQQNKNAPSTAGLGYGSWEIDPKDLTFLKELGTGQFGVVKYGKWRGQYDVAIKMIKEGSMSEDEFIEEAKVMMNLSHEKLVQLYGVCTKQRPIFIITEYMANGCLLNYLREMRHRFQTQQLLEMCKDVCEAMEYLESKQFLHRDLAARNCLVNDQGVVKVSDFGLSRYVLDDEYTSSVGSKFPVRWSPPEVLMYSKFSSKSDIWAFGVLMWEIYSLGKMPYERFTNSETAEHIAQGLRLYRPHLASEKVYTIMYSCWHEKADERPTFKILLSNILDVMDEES
UniProt Q15131: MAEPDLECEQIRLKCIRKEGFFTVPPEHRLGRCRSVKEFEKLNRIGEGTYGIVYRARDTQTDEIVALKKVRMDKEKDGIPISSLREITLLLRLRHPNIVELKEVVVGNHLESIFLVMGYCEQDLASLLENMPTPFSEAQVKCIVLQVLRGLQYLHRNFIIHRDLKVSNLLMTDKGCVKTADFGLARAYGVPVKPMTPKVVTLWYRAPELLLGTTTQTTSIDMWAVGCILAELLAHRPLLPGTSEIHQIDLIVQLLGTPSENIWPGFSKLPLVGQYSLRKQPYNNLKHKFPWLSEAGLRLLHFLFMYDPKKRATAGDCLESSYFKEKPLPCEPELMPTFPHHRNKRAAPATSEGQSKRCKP
UniProt Q00526: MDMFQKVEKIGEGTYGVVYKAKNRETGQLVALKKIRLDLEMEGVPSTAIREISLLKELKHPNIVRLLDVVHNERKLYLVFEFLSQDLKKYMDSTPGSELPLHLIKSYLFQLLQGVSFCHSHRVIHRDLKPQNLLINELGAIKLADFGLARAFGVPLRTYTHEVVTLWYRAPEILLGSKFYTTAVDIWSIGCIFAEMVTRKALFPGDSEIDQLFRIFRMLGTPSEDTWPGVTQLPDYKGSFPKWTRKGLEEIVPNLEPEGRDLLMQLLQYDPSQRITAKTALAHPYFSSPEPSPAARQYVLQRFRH
UniProt Q00535, whole entry, looked up: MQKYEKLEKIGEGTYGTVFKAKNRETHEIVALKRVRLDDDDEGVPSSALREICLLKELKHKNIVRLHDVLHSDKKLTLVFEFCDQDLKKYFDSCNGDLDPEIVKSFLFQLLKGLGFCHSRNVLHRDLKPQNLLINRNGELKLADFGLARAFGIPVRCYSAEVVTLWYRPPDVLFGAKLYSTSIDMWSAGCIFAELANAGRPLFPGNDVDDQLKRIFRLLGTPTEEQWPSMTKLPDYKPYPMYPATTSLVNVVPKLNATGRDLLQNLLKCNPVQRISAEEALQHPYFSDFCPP
UniProt Q00534, whole entry: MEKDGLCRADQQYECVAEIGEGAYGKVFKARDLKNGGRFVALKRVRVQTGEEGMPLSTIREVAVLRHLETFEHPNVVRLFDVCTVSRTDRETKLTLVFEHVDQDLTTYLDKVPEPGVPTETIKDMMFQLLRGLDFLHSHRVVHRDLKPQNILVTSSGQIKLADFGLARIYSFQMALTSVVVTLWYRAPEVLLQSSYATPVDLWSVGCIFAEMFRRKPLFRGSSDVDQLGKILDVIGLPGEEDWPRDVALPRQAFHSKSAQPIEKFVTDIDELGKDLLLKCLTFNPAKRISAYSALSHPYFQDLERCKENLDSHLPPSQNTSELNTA
UniProt P41240: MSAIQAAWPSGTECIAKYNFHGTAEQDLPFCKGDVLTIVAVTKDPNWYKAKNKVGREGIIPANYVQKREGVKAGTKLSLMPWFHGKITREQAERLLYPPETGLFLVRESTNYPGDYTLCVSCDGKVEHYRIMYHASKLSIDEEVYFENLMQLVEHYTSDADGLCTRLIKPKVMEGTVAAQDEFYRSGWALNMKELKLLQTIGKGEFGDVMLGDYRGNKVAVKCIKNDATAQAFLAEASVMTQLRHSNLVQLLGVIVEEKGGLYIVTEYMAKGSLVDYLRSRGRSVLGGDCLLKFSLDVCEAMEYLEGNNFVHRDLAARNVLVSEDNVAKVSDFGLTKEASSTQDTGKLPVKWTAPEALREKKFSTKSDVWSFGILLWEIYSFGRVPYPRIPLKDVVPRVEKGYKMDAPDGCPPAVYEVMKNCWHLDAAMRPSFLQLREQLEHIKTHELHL

Experiments:
Experiment in all cases: number of time points (of 5) at which kinase-Nluc abundance scored as decreased, DMSO-normalised (count); higher = more persistent destabilization
Settings in all cases: K562; 2-18 h
ALK = ALK (UniProt Q9UM73)
ARAF = ARAF (UniProt P10398)
AURKA = AURKA (UniProt O14965)
AURKB = AURKB (UniProt Q96GD4)
AURKC = AURKC (UniProt Q9UQB9)
BLK = BLK (UniProt P51451)
BMX = BMX (UniProt P51813)
BRAF = BRAF (UniProt P15056)
BRAF_V600E = tested on: BRAF_V600E
BTK = BTK (UniProt Q06187)
CAMK2A = CAMK2A (UniProt Q9UQM7)
CAMK2G = CAMK2G (UniProt Q13555)
CDK10 = CDK10 (UniProt Q15131)
CDK2 = CDK2 (UniProt P24941)
CDK3 = CDK3 (UniProt Q00526)
CDK5 = CDK5 (UniProt Q00535)
CDK6 = CDK6 (UniProt Q00534)
CHEK2 = CHEK2 (UniProt O96017)
CSF1R = CSF1R (UniProt P07333)
CSK = CSK (UniProt P41240)

Structure (SMILES)	number of time points (ALK)	number of time points (ARAF)	number of time points (AURKA)	number of time points (AURKB)	number of time points (AURKC)	number of time points (BLK)	number of time points (BMX)	number of time points (BRAF)	number of time points (BRAF_V600E)	number of time points (BTK)	number of time points (CAMK2A)	number of time points (CAMK2G)	number of time points (CDK10)	number of time points (CDK2)	number of time points (CDK3)	number of time points (CDK5)	number of time points (CDK6)	number of time points (CHEK2)	number of time points (CSF1R)	number of time points (CSK)
COc1ccc(Cl)cc1NC(=O)Nc1cc(C)nc2ccccc12 (2.5 µM)	0	0	0	0	0	0	0	0	0	0	0	0	0	0	0	0	0	0	0	0
CO[C@H]1C[C@@H]2CC[C@@H](C)[C@@](O)(O2)C(=O)C(=O)N2CCCC[C@H]2C(=O)O[C@H]([C@H](C)C[C@@H]2CC[C@@H](O)[C@H](OC)C2)CC(=O)[C@H](C)/C=C(\C)[C@@H](O)[C@@H](OC)C(=O)[C@H](C)C[C@H](C)/C=C/C=C/C=C/1C [Rapamycin] (10 µM)	0	0	0	0	0	0	0	0	0	0	0	0	0	0	0	0	0	0	0	0
Cc1cc2cc(Nc3ccnc(Nc4ccc5[nH]c(C)cc5c4)n3)ccc2[nH]1 (2.5 µM)	0	0	0	0	0	2	0	0	0	0	0	0	0	0	0	0	0	0	0	0
Fc1ccc(-c2nc(-c3ccccc3F)[nH]c2-c2ccncc2)cc1 (2.5 µM)	0	0	0	0	0	0	0	0	0	0	0	0	0	0	0	0	0	0	0	0
NC1(Cc2ccc(Cl)cc2)CCN(c2ncnc3[nH]ccc23)CC1 (10 µM)	0	0	0	0	0	0	0	0	0	0	0	0	0	0	0	0	0	0	0	0
N[C@H](Cc1c[nH]c2ccccc12)C(=O)N/N=C/c1ccc2nccnc2c1 [Rhosin (hydrochloride)] (10 µM)	0	0	0	0	0	0	0	0	0	0	0	0	0	0	0	0	0	0	0	0
COc1ccc2[nH]cc(/C=C3\C(=O)Nc4ccc(NC(=O)CCN5CCCCC5)cc43)c2c1 (2.5 µM)	0	0	0	0	0	0	0	0	0	0	0	0	0	0	0	0	0	0	0	0
Cn1c(=O)c(F)c(Nc2ccc(I)cc2F)c2c(=O)n(C[C@@H](O)CO)cnc21 (10 µM)	0	0	0	0	0	0	0	0	2	0	0	1	0	0	0	0	0	0	0	0
CN1CCN(c2ccc(Nc3ncc4nc(Nc5ccccc5)n([C@@H]5CCN(S(=O)(=O)C6CC6)C5)c4n3)cc2)CC1 (2.5 µM)	0	0	0	0	0	3	0	0	0	0	0	0	0	0	0	0	0	0	0	0
NCCN1CCN(C/C=C/C(=O)N2CCC[C@@H](n3nc(-c4ccc(Oc5ccccc5)cc4)c4c(N)ncnc43)C2)CC1 [Ibrutinib-MPEA] (10 µM)	0	0	0	0	0	0	0	0	0	0	0	0	0	0	0	0	0	0	0	0
Cc1c(CN2CCN(C(=O)[C@H](C)O)CC2)sc2c(N3CCOCC3)nc(-c3cnc(N)nc3)nc12 [Apitolisib] (10 µM)	0	0	4	1	0	2	4	2	3	0	0	0	0	0	0	0	0	0	0	0
Nc1ncnc2c1c(-c1ccc(Oc3ccccc3)cc1)nn2C1CCNCC1 [N-piperidine Ibrutinib (hydrochloride)] (10 µM)	0	0	0	0	0	1	0	0	0	0	0	0	0	0	0	0	0	0	0	0
